{"source": "PubChem BioAssay AID1347076", "about": "(National Center for Advancing Translational Sciences (NCATS), 2019)", "note": "“And” between values parts separate entries of the source, which are not always exact repeats. Identical values can stand only once. In all, about 400,000 compounds went through this assay and about 13,000 (3.2%) were called active. This list was built around the results that the source calls inconclusive (neither active nor inactive); the mix of calls is not that of the screen. Calls follow the shape of the dose curve; as a rule, active = well fitted cell-killing curve with a large enough effect; inconclusive = small, poorly fitted or top-dose-only effect, or effect the other way; inactive = flat fitted curve, though single readings scatter. Potencies beside an inconclusive call are fits to weak or partial responses and may not hold up. % is scaled to controls: 0 for no effect and ±100 for the full control effect; potency is read from the fitted curve at half-maximal effect.", "data": [{"experiment": "qHTS assay for MDR1-selective chemotherapeutics: Primary screen using the drug-selected MDR subline cells KB-V1; also: nearly all actives have a fitted effect of over 60% in size", "conditions": "KB-V1 MDR cells viability, CellTiter-Glo, 72 h; activity change, negative = cytotoxicity: at 46.1 µM (top of the series)", "procedure,_shortened": "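Drug-selected KB-V1 cells, grown in DMEM lacking phenol red with 10% FBS, receive compound titrations; after three days at 37 degrees C, surviving cell ATP is quantified by CellTiter-Glo luminescence and responses normalized and curve-fitted.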", "values": [{"compound": "Cc1ccc(C(=O)Nc2cccc3[nH]c(C(F)(F)F)nc23)cc1", "Potency": "active: 18.4 µM"}, {"compound": "Nc1nc2ccccc2cc1S(=O)(=O)c1ccccc1", "Potency": "inconclusive: 29.1 µM [cytotoxic, single point]"}, {"compound": "CC(C)C[C@H]1CN([C@@H](CC(C)C)CN2CCC[C@H]2CN2C(=O)C(=O)NC[C@@H]2Cc2ccc(O)cc2)C(=O)C(=O)N1CCc1ccccc1", "Potency": "inconclusive: 0.116 µM [rising, full curve]"}, {"compound": "O=C(COc1ccc(Cl)cc1)N(Cc1ccccc1)c1nc(-c2ccccc2)cs1", "Potency": "inactive"}, {"compound": "O=C(CSc1nc2c([nH]c3ccccc32)c(=O)n1-c1ccccc1F)Nc1cccc(C(F)(F)F)c1", "Potency": "inconclusive: 29.1 µM [cytotoxic, single point]"}, {"compound": "Cc1cc(Oc2ccc(Cl)cc2)nc(-c2ccccn2)n1", "Potency": "inactive"}, {"compound": "CCOC(=O)Cn1cc(/C=C/[N+](=O)[O-])c2ccccc21", "Potency": "inconclusive: 29.1 µM [cytotoxic, single point]"}, {"compound": "Oc1cc2c(cc1O)C1c3ccc(O)c(O)c3OCC1(O)C2", "note": "(centres undefined)", "Potency": "inconclusive: 25.9 µM [cytotoxic, single point]"}, {"compound": "O=C1C(=O)N(C2CCN(C(=O)c3cccc(Cl)c3)CC2)CCN1Cc1ccc(F)cc1", "Potency": "inactive"}, {"compound": "CC(CNC(=O)COc1ccccc1)OC(=O)Nc1cccc(Cl)c1", "note": "(centres undefined)", "Potency": "inconclusive: 29.1 µM [cytotoxic, single point]"}, {"compound": "COc1cc(C(=O)C(=O)c2cc(OC)c(O)c(OC)c2)cc(OC)c1O", "Potency": "inactive"}, {"compound": "O=C1CCN(CCc2ccccc2)CCN1[C@H](COc1ccccc1)Cc1ccccc1", "Potency": "inconclusive: 18.4 µM [cytotoxic, partial curve, poor fit] and inconclusive: 29.1 µM [cytotoxic, single point]"}, {"compound": "CCNS(=O)(=O)c1ccc(CCC(=O)N2CCN(c3ccccc3F)CC2)cc1", "Potency": "inconclusive: 20.6 µM [cytotoxic, single point]"}, {"compound": "CN(Cc1nc(-c2ccccn2)no1)S(=O)(=O)c1ccccc1", "Potency": "inactive"}, {"compound": "CCOC(=O)c1cnc(SC)nc1Nc1cccc2ccccc12", "Potency": "active: 11.6 µM"}, {"compound": "CNc1nnc(Sc2ncccc2[N+](=O)[O-])s1", "Potency": "inactive"}, {"compound": "Cc1cc(C)c(NC(=O)CN(C)C(=O)C2CC(=O)N(c3cccc4ccccc34)C2)c(C)c1", "note": "(centres undefined)", "Potency": "inactive"}, {"compound": "COc1ccc(C)cc1NC(=O)CCCN1C(=S)NC(C)(C)CC1C", "note": "(centres undefined)", "Potency": "inconclusive: 8.2 µM [cytotoxic, partial curve]"}, {"compound": "Cc1ccccc1OCC(O)CN1CCN(CCN2C(=O)c3cccc4cccc(c34)C2=O)CC1", "note": "(centres undefined)", "Potency": "inconclusive: 29.1 µM [cytotoxic, single point]"}, {"compound": "CC(=O)Nc1ccc(S(=O)(=O)N2CCN(CCc3ccccc3)CC2)cc1", "Potency": "inactive"}, {"compound": "CCc1cccc(CC)c1NC(=O)c1c(C)oc2ccc(O)c(CN3CCCC3)c12", "activity change, negative = cytotoxicity": "inconclusive: -31.4%"}, {"compound": "CC(OC(=O)c1ncc(Cl)c(Cl)c1Cl)C(=O)NC1CCCCC1C", "note": "(centres undefined)", "Potency": "inconclusive: 2.31 µM [rising, full curve]"}, {"compound": "CCN1CCN(C(=O)c2ccc(Sc3ccccc3Cl)c([N+](=O)[O-])c2)CC1", "Potency": "active: 13 µM"}, {"compound": "CCCCNC(=O)c1ccc2c(c1)N=C(CC)c1ccccc1S2", "Potency": "active: 18.4 µM"}, {"compound": "O=C1CC2(CCCC2)C(=O)N1c1ccc(S(=O)(=O)NCC2CC2)cc1Cl", "Potency": "inconclusive: 20.6 µM [cytotoxic, single point]"}, {"compound": "O=C(Cc1ccc(Cl)cc1)N/N=C/c1cccc(O)c1", "Potency": "inconclusive: 5.17 µM [rising, full curve, poor fit]"}, {"compound": "COc1ccc(CC(=O)N(C)CC(=O)Nc2ccccc2SC)cc1", "Potency": "inconclusive: 18.4 µM [cytotoxic, single point]"}, {"compound": "O=C(CCS(=O)(=O)c1ccc(F)cc1)Nc1ccc(N2CCN(Cc3ccccc3)CC2)cc1", "Potency": "active: 18.4 µM"}, {"compound": "COc1cc(OC)cc(C(=O)NCC(=O)NCC(c2ccco2)N2CCCCC2)c1", "note": "(centres undefined)", "Potency": "inconclusive: 23.1 µM [cytotoxic, partial curve]"}, {"compound": "N#Cc1cn(CCCOc2ccccc2)c2ccccc12", "Potency": "inconclusive: 20.6 µM [cytotoxic, single point]"}, {"compound": "COc1ccc(CCNc2oc(Cc3cccc4ccccc34)nc2C#N)cc1OC", "Potency": "active: 18.4 µM"}, {"compound": "CC1CC1c1ccc(/C=C(\\C#N)C(=O)Nc2ccc(Cl)cc2Cl)o1", "note": "(centres undefined)", "Potency": "inconclusive: 23.1 µM [cytotoxic, single point]"}, {"compound": "Cc1nc(N2CCN(c3ccccn3)CC2)c2c(C)c(C(=O)N3CCN(c4ccccc4F)CC3)sc2n1", "Potency": "active: 20.6 µM"}, {"compound": "Cn1nnc(NC(=O)c2ccc(Br)o2)n1", "Potency": "inconclusive: 0.82 µM [rising, full curve, poor fit]"}, {"compound": "CCC(=O)Nc1c(S(=O)(=O)c2ccc(C)cc2)c2nc3ccccc3nc2n1C(C)c1ccccc1", "note": "(centres undefined)", "Potency": "inconclusive: 6.51 µM [cytotoxic, partial curve]"}, {"compound": "COc1ccc(NC(=O)CCc2nc(-c3ccc(C)cc3)no2)c(OC)c1", "Potency": "inconclusive: 29.1 µM [cytotoxic, partial curve, poor fit]"}, {"compound": "COc1cc2c(cc1OC)CN(C(=O)c1cccs1)CC2", "Potency": "inactive"}, {"compound": "O=C(COc1ccc(Cl)cc1)N1CCN(c2ccc([N+](=O)[O-])c(N3CCCCC3)c2)CC1", "Potency": "inactive"}, {"compound": "Cc1ccc(S(=O)(=O)N(C)c2ccc(OCC(=O)Nc3ccc(S(C)(=O)=O)cc3)cc2)cc1", "Potency": "inconclusive: 25.9 µM [cytotoxic, single point]"}, {"compound": "Cc1ccc2c(c1)C(=O)OC(C(=O)Nc1ccccc1C(=O)O)C2", "note": "(centres undefined)", "Potency": "inactive"}, {"compound": "O=C(CN1C(=O)C2(SCC(=O)N2c2ccc(F)cc2)c2ccccc21)NC1CCCCC1", "note": "(centres undefined)", "Potency": "inconclusive: 0.184 µM [cytotoxic, full curve]"}, {"compound": "CC1CCN(C(=O)c2ccc(CNS(=O)(=O)c3ccc(C(C)(C)C)cc3)cc2)CC1", "Potency": "inconclusive: 16.4 µM [cytotoxic, single point]"}, {"compound": "COC(=O)c1cccc(NS(=O)(=O)c2ccc(OC)c(OC)c2)c1C", "Potency": "inconclusive: 29.1 µM [cytotoxic, single point]"}, {"compound": "C=CCSc1nnc(-c2cc(C(C)(C)C)nn2Cc2ccc(F)cc2)n1C", "Potency": "inconclusive: 20.6 µM [cytotoxic, single point]"}, {"compound": "COC(=O)c1c(NS(=O)(=O)c2ccccc2)csc1C", "Potency": "inconclusive: 32.6 µM [cytotoxic, single point]"}, {"compound": "Cc1ccc(S(=O)(=O)Oc2ccc(C3C4=C(CCCC4=O)OC4=C3C(=O)CCC4)cc2)cc1", "Potency": "inconclusive: 20.6 µM [rising, partial curve, poor fit]"}, {"compound": "Cc1nn2c(C)c(C(=O)N3CCN(c4ccc(Cl)cc4)CC3)cnc2c1-c1ccc(F)cc1", "Potency": "inactive"}, {"compound": "Cc1cc(C)nc(N2CCC(C(=O)NCc3cccs3)CC2)n1", "Potency": "active: 13 µM"}, {"compound": "COc1ccc(C(=O)CSc2nnc(CN3CCCCC3)n2-c2ccc(F)cc2)cc1", "Potency": "inconclusive: 7.31 µM [cytotoxic, partial curve]"}, {"compound": "CCOc1ccc(NC(=O)CN(C)C(=O)c2ccccc2SCc2c(C)noc2C)cc1OCC", "Potency": "inconclusive: 18.4 µM [cytotoxic, single point]"}, {"compound": "Cn1nc(-c2ccccc2)c(CSc2ccccc2Cl)c1Cl", "Potency": "active: 11.6 µM"}, {"compound": "NC(COCc1ccccc1)c1csc(NC(=O)Nc2cccc(C(F)(F)F)c2)n1", "note": "(centres undefined)", "Potency": "inconclusive: 29.1 µM [cytotoxic, single point]"}, {"compound": "O=C(Oc1c(Cl)cc(Cl)c2cccnc12)c1cccs1", "Potency": "inconclusive: 9.2 µM [cytotoxic, partial curve]"}, {"compound": "CCCc1nc(NCc2ccccn2)c2nnn(Cc3ccccc3F)c2n1", "Potency": "active: 2.91 µM"}, {"compound": "O=C(NCc1nnc(SCC(=O)N2CCCC2)o1)c1cccc(C(F)(F)F)c1", "Potency": "inactive"}, {"compound": "O=C(NCCCN1CCN(c2cccc(Cl)c2)CC1)c1ccc2nc(Cc3ccccc3)oc2c1", "Potency": "inconclusive: 4.11 µM [cytotoxic, full curve]"}, {"compound": "CCOc1ccc(C2=CSC3=NCCN23)cc1Cl", "Potency": "inactive"}, {"compound": "COc1ccc(NS(=O)(=O)c2cc(C(=O)OC(C)C(=O)N3CCOCC3)ccc2Cl)cc1", "note": "(centres undefined)", "Potency": "inconclusive: 29.1 µM [cytotoxic, single point]"}, {"compound": "NNC(=O)c1cccc(S(=O)(=O)Nc2cccc(C(F)(F)F)c2)c1", "Potency": "inactive"}, {"compound": "CCCc1nnc(SCC(=O)Nc2nccs2)o1", "Potency": "inconclusive: 29.1 µM [rising, single point]"}, {"compound": "CC(C)(C)CNC(=O)c1ccc2c(c1)S(=O)(=O)c1cc(Cl)ccc1C2=O", "Potency": "inconclusive: 10.3 µM [rising, partial curve]"}, {"compound": "Cc1ccnc(NS(=O)(=O)c2ccc(NC(=O)c3ccc(C)c(C)c3)cc2)n1", "Potency": "inconclusive: 13 µM [rising, partial curve, poor fit]"}, {"compound": "O=C(C1CCC1)N1CCN(S(=O)(=O)c2ccc(F)cc2)CC1", "Potency": "inconclusive: 14.6 µM [cytotoxic, partial curve, poor fit]"}, {"compound": "Nc1cc(N)nc(SCC(=O)NCC(=O)Nc2ccc(F)c(F)c2F)n1", "Potency": "inconclusive: 29.1 µM [rising, single point]"}, {"compound": "CCOC(=O)C1CCN(CCC(=O)Nc2ccc(Br)cc2)CC1", "Potency": "inconclusive: 23.1 µM [cytotoxic, single point]"}, {"compound": "Cn1c(=O)c(C#N)c(-c2ccc(F)cc2)c2cc(C(=O)c3cc(Cl)cc(Cl)c3O)cnc21", "Potency": "inactive"}, {"compound": "CCN1C(=O)c2ccc(C(=O)Nc3ccc4c(c3)OCO4)cc2C1=O", "Potency": "inactive"}, {"compound": "Cc1ccc(N(CC(O)Cn2c3ccccc3c3ccccc32)S(C)(=O)=O)c(C)c1", "note": "(centres undefined)", "Potency": "active: 13 µM"}, {"compound": "O=C(c1ccc(F)cc1)C1CCN(CCn2c(=O)[nH]c3ccccc3c2=O)CC1", "Potency": "inactive"}]}]}
